This passage reports binding results from article PMC4534774.

Protein sequences, listed by entry. Tags and fused reporters are not part of them. Lines headed by an entry give the natural chain unless they say otherwise; changes in a name come on top.
UniProt Q969H0: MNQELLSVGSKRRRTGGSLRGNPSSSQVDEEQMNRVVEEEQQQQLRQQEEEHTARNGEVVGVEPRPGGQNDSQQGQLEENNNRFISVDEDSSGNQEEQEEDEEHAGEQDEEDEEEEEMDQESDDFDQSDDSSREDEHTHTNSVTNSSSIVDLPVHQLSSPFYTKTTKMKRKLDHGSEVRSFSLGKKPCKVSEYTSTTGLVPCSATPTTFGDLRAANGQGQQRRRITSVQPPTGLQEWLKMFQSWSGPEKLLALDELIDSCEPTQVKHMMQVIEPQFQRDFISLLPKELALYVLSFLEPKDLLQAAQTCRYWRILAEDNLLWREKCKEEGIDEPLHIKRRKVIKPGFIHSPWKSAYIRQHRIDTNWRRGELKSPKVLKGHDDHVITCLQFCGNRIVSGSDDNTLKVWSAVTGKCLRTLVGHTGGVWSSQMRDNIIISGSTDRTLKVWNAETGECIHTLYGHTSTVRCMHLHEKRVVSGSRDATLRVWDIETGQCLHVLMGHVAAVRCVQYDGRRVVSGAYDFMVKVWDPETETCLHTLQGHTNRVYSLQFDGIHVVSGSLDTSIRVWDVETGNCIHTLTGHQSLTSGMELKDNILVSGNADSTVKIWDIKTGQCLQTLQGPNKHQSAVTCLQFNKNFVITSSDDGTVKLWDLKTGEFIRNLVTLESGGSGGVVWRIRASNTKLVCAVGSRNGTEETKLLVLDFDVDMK
UniProt P19838: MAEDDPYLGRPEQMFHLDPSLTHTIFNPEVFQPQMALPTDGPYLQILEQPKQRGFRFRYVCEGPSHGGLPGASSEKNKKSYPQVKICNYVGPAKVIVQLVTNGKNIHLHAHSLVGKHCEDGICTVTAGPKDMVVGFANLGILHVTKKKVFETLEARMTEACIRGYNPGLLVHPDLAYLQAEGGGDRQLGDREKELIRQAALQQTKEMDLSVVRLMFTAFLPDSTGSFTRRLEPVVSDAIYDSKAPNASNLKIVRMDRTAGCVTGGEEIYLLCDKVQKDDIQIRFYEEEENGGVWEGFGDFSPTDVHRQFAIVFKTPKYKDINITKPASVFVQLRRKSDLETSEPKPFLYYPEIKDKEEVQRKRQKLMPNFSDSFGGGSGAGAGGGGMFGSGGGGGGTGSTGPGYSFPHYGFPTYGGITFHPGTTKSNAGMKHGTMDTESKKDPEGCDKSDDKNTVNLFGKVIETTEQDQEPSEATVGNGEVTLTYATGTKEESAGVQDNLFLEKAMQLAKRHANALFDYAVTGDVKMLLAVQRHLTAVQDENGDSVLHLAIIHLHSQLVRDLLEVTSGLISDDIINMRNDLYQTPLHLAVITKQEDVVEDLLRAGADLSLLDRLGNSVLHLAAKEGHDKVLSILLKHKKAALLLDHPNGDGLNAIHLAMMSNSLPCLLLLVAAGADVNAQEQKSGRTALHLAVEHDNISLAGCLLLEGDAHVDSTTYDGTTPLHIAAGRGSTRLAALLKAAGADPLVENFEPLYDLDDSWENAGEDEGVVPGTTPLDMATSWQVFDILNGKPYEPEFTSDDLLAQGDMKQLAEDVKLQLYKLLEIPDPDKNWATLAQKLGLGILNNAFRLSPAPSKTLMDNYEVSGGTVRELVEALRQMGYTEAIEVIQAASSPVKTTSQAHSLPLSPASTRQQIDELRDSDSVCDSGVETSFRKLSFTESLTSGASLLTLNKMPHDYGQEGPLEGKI
UniProt Q04206: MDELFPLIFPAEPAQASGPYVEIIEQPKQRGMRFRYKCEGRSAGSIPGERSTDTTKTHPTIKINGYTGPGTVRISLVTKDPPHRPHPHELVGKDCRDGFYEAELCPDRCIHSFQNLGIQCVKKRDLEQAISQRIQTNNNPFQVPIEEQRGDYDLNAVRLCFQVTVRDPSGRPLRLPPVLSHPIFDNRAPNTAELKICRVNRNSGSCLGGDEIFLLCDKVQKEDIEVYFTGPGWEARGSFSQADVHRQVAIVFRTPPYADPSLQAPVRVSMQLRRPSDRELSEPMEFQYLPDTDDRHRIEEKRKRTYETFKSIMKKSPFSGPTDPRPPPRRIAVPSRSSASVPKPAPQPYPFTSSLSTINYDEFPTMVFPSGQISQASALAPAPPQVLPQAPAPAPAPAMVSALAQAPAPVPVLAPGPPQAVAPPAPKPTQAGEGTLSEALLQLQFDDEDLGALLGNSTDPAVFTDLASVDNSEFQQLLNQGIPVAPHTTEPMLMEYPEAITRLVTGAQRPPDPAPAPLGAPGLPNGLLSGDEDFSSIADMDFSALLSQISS

No constants are given. Whether binding was seen depends on the method and setting. Binding seen in cells or lysates may run through a third protein. Some entries that bind do so weakly or less than the wild type.

One test concerns the target FLAG-tagged FBW7 (UniProt Q969H0). Put plainly: co-IP; anti-Flag (DYDDDK Tag Rabbit) pre-bound to protein A agarose, overnight immunoprecipitation from extracts of HT29 cells transfected with Flag-FBW7, with or without 1,25D; washes with 200 mM NaCl, 1% NP-40; Western blot for NF-κB1 and RELA; controls: control IgG and untransfected cells. In general terms: Immunoblotting shows a protein as a band on a membrane.

Test [1] concerns the target T1, vitamin D receptor (human (endogenous in HT29)) (UniProt P11473).
T1 sequence: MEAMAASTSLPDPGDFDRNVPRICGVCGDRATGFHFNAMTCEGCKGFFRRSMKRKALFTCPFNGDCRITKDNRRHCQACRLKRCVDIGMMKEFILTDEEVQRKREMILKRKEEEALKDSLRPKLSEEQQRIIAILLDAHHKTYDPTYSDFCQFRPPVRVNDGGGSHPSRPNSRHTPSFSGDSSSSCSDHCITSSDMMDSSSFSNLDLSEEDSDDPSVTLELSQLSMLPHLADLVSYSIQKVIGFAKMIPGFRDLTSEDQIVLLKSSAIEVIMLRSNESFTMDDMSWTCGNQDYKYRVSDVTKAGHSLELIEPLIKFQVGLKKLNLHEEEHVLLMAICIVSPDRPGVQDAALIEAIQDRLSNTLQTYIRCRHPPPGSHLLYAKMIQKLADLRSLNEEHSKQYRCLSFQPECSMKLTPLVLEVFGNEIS
Put plainly: co-IP; anti-VDR (D-6) pre-bound to protein A agarose, overnight immunoprecipitation from extracts of HT29 cells treated with vehicle or 1,25D (100 nM) for 24 h; lysis in 20 mM Tris pH 7.5, 100 mM NaCl, 0.5% NP-40; washes with 200 mM NaCl, 1% NP-40; Western blot for NF-κB subunits.

As for NF-κB1 p50 (from UniProt P19838 1-433), the binding result with FLAG-tagged FBW7 was “binds”.
For NF-κB1 p105 (from UniProt P19838 1-968), the binding result in test [1] is “binds”.
Take RELA (p65) (from UniProt Q04206 1-551): the binding entry (in test [1]; in the test with FLAG-tagged FBW7) was “binds” each time.
